No constants are given. Whether binding was seen depends on the method and setting. Some results given as binding are weak or reduced against the parent protein; the word gives no strength.
Target: T1, Human IL17RA protein (SinoBiological) (human, UniProt Q96F46 33-320)
T1 construct: Coated on ELISA plates at 0.25 ug/well; also called IL17RA receptor
T1 sequence (looked up): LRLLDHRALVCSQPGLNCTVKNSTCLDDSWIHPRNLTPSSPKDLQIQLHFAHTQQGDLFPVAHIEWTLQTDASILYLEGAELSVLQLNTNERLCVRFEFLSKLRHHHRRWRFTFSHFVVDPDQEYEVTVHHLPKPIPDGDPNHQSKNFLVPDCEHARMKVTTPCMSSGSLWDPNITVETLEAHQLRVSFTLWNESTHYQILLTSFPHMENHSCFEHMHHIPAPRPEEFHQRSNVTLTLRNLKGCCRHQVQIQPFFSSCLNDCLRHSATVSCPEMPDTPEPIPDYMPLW
Assay: receptor binding ELISA with coated human IL17RA

Chains of the proteins cited; added tags and fusions are not shown. Lines headed by an entry give the natural chain unless they say otherwise; changes in a name come on top.
UniProt Q16552: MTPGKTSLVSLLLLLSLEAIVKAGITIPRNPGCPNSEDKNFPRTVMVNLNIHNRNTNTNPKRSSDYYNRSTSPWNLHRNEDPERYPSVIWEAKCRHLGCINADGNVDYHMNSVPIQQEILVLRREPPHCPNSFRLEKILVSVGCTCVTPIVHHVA

binding: binds
Substance: human IL17 purified on Im7-Sepharose and released from ColE7 by TEV protease (from UniProt Q16552 24-155) (ligand)

Reference: US20240093159A1 (UNIVERSITY OF DUNDEE, published 2024)
